Reference: CN105585631A
These are yes or no findings as the source states them, for the method shown. Some results given as binding are weak or reduced against the parent protein; the word gives no strength.

Amino acid sequences for entries named in this document (tags omitted). Residues count along the entry.
UniProt P03101, residues 11-475: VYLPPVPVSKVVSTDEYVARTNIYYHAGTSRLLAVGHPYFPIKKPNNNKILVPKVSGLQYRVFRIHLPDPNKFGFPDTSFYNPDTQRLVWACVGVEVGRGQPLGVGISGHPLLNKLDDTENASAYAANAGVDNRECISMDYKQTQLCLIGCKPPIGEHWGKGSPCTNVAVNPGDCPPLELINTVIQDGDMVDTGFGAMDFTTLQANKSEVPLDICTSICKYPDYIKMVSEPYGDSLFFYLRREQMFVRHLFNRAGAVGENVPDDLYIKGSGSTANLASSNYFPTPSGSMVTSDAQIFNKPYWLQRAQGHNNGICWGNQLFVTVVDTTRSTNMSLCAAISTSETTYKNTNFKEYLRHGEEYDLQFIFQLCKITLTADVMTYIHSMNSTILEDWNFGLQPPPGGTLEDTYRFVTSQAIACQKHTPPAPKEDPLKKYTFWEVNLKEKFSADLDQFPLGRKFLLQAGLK

Target: HPV16 L1五聚体蛋白 (人乳头瘤病毒16型 (HPV16)) (UniProt P03101)
Experiment: sandwich ELISA kit: 5A6 capture, 4G12-HRP detection, pentamer 10 ug/ml

B1: 单克隆抗体5A6 (杂交瘤细胞株5A6, CGMCC 11299) (antibody, V domains shown)
VH: VKLQQSGAELVKPGASVKLSCTASGFNIKDTYMHWVKQRPEQGLEWIGRIDPANGNTEYDPNFQGKATITSDTSSNTAYLHLSSLTSEDTAVYYCAREVGGYYFDYWGQGTTVTVSS
VL: DIQLTQSPSSMSASLGDRITITCQATQDIVKNLNWYQQKPGKPPSFLIYYATELAEGVPSRFSGSGSGSDYSLTISNLESEDFADYYCLQFYEFPLTFGAGTKLEI
  binding: binds
